These are yes or no findings as the source states them, for the method shown. In cells and extracts the contact can be indirect. Some results given as binding are weak or reduced against the parent protein; the word gives no strength. Where a sequence is shown, tags or fusion partners need not be part of it.

By UniProt entry, the sequences of proteins in these tests, tags left out. Where a name states a change or a piece, a line headed by the entry shows the natural chain unless it says otherwise. Residues count along the entry.
in vitro translated hnRNP A1 deletion protein 1–234 (P09651, residues 1-234): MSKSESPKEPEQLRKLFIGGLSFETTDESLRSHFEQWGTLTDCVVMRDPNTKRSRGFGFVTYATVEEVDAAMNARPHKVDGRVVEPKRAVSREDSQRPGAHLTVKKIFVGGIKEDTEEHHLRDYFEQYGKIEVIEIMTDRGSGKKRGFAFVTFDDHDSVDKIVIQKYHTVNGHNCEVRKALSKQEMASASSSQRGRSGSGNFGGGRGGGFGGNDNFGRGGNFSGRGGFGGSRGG
in vitro translated hnRNP A1 deletion protein 1–194 (P09651, residues 1-194): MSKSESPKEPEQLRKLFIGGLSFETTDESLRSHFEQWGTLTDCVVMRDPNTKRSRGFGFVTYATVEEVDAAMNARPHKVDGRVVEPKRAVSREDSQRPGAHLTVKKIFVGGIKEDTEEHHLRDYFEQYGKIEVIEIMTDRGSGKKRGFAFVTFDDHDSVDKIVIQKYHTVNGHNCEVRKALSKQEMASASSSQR

This test addresses T1, GST-Tap (1–619) (UniProt Q9UBU9).
T1 sequence: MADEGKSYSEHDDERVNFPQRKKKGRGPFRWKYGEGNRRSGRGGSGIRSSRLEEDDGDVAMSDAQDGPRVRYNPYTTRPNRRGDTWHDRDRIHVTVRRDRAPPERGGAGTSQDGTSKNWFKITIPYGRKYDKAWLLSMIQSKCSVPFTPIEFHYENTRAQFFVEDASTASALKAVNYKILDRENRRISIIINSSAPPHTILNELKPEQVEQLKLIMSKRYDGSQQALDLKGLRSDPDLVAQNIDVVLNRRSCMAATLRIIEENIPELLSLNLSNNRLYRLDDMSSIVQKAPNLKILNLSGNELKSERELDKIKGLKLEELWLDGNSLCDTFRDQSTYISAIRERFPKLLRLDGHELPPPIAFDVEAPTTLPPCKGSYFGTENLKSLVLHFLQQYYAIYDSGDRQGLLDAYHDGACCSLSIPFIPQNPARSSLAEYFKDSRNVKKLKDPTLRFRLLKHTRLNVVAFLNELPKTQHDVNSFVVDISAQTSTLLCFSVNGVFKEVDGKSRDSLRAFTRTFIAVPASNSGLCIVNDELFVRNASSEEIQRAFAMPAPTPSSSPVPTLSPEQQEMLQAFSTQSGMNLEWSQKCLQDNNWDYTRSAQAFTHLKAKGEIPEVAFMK
The experiment in a line: pull-down; 50 µl E. coli lysate with GST-fusion protein mixed with 50 µl glutathione agarose bead slurry and 2 µl [35S]-labelled in vitro translated protein; 4°C, 1 h; lysis buffer 20 mM Tris-HCl pH 8.0/200 mM NaCl/1 mM EDTA/0.5% NP40; 4 washes; SDS-PAGE and Phosphorimager.

As for “in vitro translated hnRNP A1 deletion protein 1–234 (from UniProt P09651-2 1-234) (domain or fragment)”, the binding entry was “binds”.
The entry for “in vitro translated hnRNP A1 deletion protein 1–194 (from UniProt P09651-2 1-194) (domain or fragment)” is “no binding”.

Source of the values: paper PMC3485056.
